From publication PMC5892408 (Chemical Science, 2018)

Assay: general procedure: Fmoc solid-phase peptide synthesis; Tentagel S RAM resin
Details: late stage modification step

With c(RGDfK)-PA the step yield was 72%.
